{"source": "PubChem BioAssay AID743454 | Peter MacCallum Cancer Centre, 2014", "test": "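Search for knock-downs that restore vorinostat killing in resistant colon cancer cells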 (primary screen)", "cell system": "human HCT116-VR colon cancer cells, selected for vorinostat resistance", "knock-down reagent": "siRNA pool against human genes, 40 nM siRNA pool", "timing": "vorinostat for 24 h, read-out about 72 h after transfection", "treatment": "vorinostat at 2.5 µM final", "read-out": "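Two measures, CellTiter-Fluor viability and luminescent caspase 3/7 activity, each as fold change against same-plate mock wells, mean of duplicates, then screen-wide robust z-score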", "scale": "viability robust z-score: higher = more viable cells than screen typical; caspase robust z-score: higher = more caspase 3/7 activity than screen typical", "call rule": "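a knock-down is a hit when classed RV1 or RV2 for lowered viability, or CA1 or CA2 for caspase activation; those lethal without drug were dropped; hits were retested singly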", "note": "The deposit covers about 18,000 reagents; below is a random part of them. Of all reagents, 450 (2.5%) got an active call. 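Single biological run; no consistent viability z cut-off exists, so the class columns, not z-scores, define the calls.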"}
{"Gene": "ARMCX1 (armadillo repeat containing X-linked 1)", "viability hit class": "no change", "caspase hit class": "no change", "viability robust z-score": 0.56, "caspase robust z-score": 2.74, "Outcome": "inactive"}
{"Gene": "FAABTP (fatty acid amide binding transmembrane protein)", "viability hit class": "no change", "caspase hit class": "no change", "viability robust z-score": 0.46, "caspase robust z-score": -0.32, "Outcome": "inactive"}
{"Gene": "RPP25L (ribonuclease P/MRP subunit p25 like)", "viability hit class": "no change", "caspase hit class": "no change", "viability robust z-score": 0.04, "caspase robust z-score": 3.82, "Outcome": "inactive"}
{"Gene": "PLEKHA4 (pleckstrin homology domain containing A4)", "viability hit class": "no change", "caspase hit class": "no change", "viability robust z-score": -1.02, "caspase robust z-score": 2.49, "Outcome": "inactive"}
{"Gene": "PTPRU (protein tyrosine phosphatase receptor type U)", "viability hit class": "no change", "caspase hit class": "no change", "viability robust z-score": -0.19, "caspase robust z-score": 0.16, "Outcome": "inactive"}
{"Gene": "DDX10 (DEAD-box helicase 10)", "viability hit class": "no change", "caspase hit class": "no change", "viability robust z-score": -0.48, "caspase robust z-score": -0.9, "Outcome": "inactive"}
{"Gene": "FITM2 (fat storage inducing transmembrane protein 2)", "viability hit class": "no change", "caspase hit class": "no change", "viability robust z-score": 0.12, "caspase robust z-score": -0.27, "Outcome": "inactive"}
{"Gene": "KCNS2", "viability hit class": "no change", "caspase hit class": "no change", "viability robust z-score": -1.96, "caspase robust z-score": 0.42, "Outcome": "inactive"}
{"Gene": "ISOC2 (isochorismatase domain containing 2)", "viability hit class": "no change", "caspase hit class": "no change", "viability robust z-score": 0.18, "caspase robust z-score": 4.64, "Outcome": "inactive"}
{"Gene": "HGS (hepatocyte growth factor-regulated tyrosine kinase substrate)", "viability hit class": "no change", "caspase hit class": "no change", "viability robust z-score": -0.16, "caspase robust z-score": -0.17, "Outcome": "inactive"}
{"Gene": "ACSL3 (acyl-CoA synthetase long chain family member 3)", "viability hit class": "no change", "caspase hit class": "no change", "viability robust z-score": -0.06, "caspase robust z-score": -0.88, "Outcome": "inactive"}
{"Gene": "EML3 (EMAP like 3)", "viability hit class": "no change", "caspase hit class": "no change", "viability robust z-score": 0.05, "caspase robust z-score": -0.86, "Outcome": "inactive"}
